US8980848B2, “Flavonoid dimers and their use” (The Hong Kong Polytechnic University, priority 2010, dated 2015)

Tests used:
Conditions in all cases: IC50 against PEM/IC50 against promastigotes
Lm50122 promastigotes = experiment: In vitro anti-promastigote activity, Lm50122; format: cell-based, Leishmania major
Method: (§1) Cell Lines and Cell Culture. Promastigotes of Leishmania donovani (wild type LdAG83, pentamidine-resistant LdAG83-PentR50, and SSG-resistant Ld39) and Leishmania major [MHOM/IL/67/JERICHO II (Lm50122), from ATCC] were used in this study.
(§2) In Vitro Anti-Promastigote Activity. The viability of promastigotes was determined by the Cell Titer 96° Aqueous Assay (Promega) that employs a tetrazolium compound (MTS, 2-(4,5-Dimethylthiazol-2-yl-)-5-[3-(carboxymethoxy)phenyl]-2-(4-sulfophenyl)-2H-tetrazolium) and electron coupling reagent, phenazine methosulfate (PMS).^7 Promastigotes were seeded into 96-well flat bottom microtiter plate at 1×10^5 cells per well in a final volume of 100 μL medium and incubated with a series concentration of synthetic flavonoid dimers or known antileishmanials. The parasites were incubated at 27° C. for 72 hrs. Fresh solution of 2 mg/mL MTS and 0.92 mg/mL PMS were prepared in a ratio of 20:1 (MTS:PMS). After 72 hrs incubation, 10 μL of MTS:PMS mixture was added into each well of microtiter plate. The plate was then incubated at 27° C. for 4 hrs for color development. After 4 hrs incubation, the OD values were determined at 490 nm using automatic microtiter plate reader (Bio-Rad).

[1] = test system: LdAG83 promastigotes (wild type); experiment: In vitro anti-promastigote activity, LdAG83; format: cell-based, Leishmania donovani
Method: as §1, §2

[2] = test system: Ld39 promastigotes (SSG-resistant); experiment: In vitro anti-promastigote activity, Ld39; format: cell-based, Leishmania donovani
Method: as §1, §2

Row | SMILES | Therapeutic index relative to PEM, Lm50122 (Lm50122 promastigotes) | Therapeutic index relative to PEM, LdAG83 [1] | Therapeutic index relative to PEM, Ld39 [2]
1 | O=c1cc(-c2ccc(OCCOCCN(CCOCCOc3ccc(-c4cc(=O)c5ccccc5o4)cc3)Cc3ccncc3)cc2)oc2ccccc12 [Compound 21, 1,13-Bis[4′-(4H-chromen-4-on-2-yl)phenyl]-N-(4-pyridylmethyl)-1,4,10,13-tetraoxa-7-azamidecane] | >251.4 | >488.9 | >463.2
2 | O.O.O.O.O.O.O.O.O.O=C([O-])[C@@H]1[O][Sb]2([O-])([O][Sb]34([OH])[O][C@H]([C@H](O)CO)[C@H]([O]3)[C@H](C(=O)[O-])[O]4)[O][C@H]([C@H](O)CO)[C@@H]1[O]2.[Na+].[Na+].[Na+] [Sodium stibogluconate, sodium stibogluconate, reference compound] | >10.5 | >4.1 | >1.6
